Publication PMC10618255, “Cryo-EM structure of human O-GlcNAcylation enzyme pair OGT-OGA complex” (Nature Communications, 2023)
Results are given in words; binding and its absence hold for the method and conditions named. For some of these results: Binding seen in cells or lysates may run through a third protein. Some entries that bind do so weakly or less than the wild type. Sequences can lack the tags named with a protein.

What was measured:
[1] = biological target: T1, Myc-OGT WT (human, pCS2) (human) (UniProt O15294); assay: co-IP; 293FT cells co-transfected with pCS2-Myc-OGT WT or mutant and pCS2-Flag-OGA; lysate in TENT buffer (25 mM Tris pH 7.4, 150 mM NaCl, 0.5% TritonX100, 1 mM EDTA); anti-Myc and anti-Flag magnetic beads; western blot
T1 sequence: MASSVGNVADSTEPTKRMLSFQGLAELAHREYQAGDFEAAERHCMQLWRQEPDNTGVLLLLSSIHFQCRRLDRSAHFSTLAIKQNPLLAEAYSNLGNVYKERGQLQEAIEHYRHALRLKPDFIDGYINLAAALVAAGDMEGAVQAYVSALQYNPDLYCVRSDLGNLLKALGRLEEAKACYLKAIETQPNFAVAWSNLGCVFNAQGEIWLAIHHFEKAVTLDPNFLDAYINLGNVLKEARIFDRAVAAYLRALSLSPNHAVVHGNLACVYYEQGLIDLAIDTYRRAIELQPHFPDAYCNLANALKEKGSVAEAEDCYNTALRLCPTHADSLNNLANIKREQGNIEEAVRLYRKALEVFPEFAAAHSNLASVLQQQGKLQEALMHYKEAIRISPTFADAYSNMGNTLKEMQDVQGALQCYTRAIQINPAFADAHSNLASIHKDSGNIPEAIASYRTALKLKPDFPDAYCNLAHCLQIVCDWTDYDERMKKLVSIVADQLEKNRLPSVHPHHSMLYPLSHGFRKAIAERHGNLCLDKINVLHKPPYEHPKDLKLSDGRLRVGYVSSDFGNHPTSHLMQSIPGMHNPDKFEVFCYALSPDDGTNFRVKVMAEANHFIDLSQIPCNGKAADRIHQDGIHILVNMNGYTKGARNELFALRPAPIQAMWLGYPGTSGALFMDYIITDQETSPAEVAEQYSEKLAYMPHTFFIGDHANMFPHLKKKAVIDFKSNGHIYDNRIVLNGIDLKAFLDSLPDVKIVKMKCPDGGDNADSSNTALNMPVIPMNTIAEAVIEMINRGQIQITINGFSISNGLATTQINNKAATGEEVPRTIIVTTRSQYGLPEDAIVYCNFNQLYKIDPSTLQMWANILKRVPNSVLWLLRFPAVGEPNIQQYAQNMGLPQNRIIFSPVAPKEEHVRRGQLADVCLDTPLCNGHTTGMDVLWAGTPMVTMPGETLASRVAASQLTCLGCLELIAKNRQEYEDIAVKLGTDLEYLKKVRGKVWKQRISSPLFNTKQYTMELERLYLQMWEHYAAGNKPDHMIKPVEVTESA

[2] = biological target: T2, Flag-OGA (human, pCS2) (human) (UniProt O60502); assay: as above
T2 sequence: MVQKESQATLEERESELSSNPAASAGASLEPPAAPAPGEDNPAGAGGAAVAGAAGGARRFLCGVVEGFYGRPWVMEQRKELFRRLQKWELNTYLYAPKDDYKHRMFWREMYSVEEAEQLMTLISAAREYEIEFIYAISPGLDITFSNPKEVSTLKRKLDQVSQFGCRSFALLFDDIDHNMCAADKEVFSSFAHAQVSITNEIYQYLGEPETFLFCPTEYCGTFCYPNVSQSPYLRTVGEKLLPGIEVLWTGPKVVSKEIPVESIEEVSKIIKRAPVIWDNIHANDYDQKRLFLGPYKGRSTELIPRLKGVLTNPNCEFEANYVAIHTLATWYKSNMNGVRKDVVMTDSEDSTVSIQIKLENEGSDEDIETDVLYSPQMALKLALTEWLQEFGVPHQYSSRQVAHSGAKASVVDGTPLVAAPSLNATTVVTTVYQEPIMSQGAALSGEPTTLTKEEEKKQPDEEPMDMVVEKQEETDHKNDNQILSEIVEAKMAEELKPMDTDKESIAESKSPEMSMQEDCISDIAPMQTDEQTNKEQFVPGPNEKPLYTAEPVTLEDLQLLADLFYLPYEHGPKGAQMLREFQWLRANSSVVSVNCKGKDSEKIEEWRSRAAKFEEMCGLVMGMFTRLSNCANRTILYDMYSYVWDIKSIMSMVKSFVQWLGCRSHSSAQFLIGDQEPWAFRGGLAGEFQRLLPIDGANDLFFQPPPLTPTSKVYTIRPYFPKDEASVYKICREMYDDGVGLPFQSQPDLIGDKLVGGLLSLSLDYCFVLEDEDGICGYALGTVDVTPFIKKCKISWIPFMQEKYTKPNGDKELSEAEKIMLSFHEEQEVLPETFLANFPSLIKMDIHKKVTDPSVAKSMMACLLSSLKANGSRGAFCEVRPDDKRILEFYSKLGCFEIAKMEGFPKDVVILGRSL

[3] = biological target: T3, full-length human OGT (O-GlcNAc transferase), C-terminal His6 (human) (UniProt O15294); assay: SEC; recombinant human OGT and OGA on size exclusion chromatography (Superose 6 10/300; 25 mM HEPES pH 7.4, 100 mM NaCl, 2 mM DTT, 0.05% NP40); both purified
T3 sequence: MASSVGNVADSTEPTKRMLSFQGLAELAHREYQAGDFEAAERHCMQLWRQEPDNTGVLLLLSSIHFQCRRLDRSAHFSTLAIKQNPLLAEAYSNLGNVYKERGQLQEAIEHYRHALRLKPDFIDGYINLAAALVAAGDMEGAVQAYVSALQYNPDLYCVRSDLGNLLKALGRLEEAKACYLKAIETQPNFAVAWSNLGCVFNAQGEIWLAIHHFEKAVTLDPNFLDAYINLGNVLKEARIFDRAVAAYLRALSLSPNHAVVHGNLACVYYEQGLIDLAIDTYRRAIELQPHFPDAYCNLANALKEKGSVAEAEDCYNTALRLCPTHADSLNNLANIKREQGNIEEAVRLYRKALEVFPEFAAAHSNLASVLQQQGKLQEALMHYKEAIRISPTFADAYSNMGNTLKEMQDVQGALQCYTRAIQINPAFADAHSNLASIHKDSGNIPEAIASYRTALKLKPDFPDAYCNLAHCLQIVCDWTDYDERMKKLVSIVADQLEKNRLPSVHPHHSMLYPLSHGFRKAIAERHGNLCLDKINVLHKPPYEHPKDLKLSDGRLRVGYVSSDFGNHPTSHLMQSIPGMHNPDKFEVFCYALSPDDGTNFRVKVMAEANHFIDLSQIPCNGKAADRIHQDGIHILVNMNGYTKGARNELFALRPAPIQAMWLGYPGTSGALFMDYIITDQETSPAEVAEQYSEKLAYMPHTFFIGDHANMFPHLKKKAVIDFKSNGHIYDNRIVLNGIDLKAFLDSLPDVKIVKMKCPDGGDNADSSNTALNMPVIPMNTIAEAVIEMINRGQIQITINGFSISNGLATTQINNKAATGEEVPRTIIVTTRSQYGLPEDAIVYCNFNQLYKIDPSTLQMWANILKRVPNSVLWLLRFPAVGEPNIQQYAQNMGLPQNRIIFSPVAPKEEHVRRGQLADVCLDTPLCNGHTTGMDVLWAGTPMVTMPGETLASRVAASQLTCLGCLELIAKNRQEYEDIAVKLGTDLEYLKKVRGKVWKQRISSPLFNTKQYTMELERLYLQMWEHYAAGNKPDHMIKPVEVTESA

[4] = biological target: T3, full-length human OGT (O-GlcNAc transferase), C-terminal His6 (human); assay: cryo-EM structure; single-particle cryo-EM of the OGT-OGA complex co-expressed in E. coli and purified, incubated with 1 mg/ml UDP-GlcNAc on ice; conformation II at 3.92 Å; both purified

B1: Flag-OGA (human, pCS2) (enzyme, UniProt O60502 1-916)
chain: MVQKESQATLEERESELSSNPAASAGASLEPPAAPAPGEDNPAGAGGAAVAGAAGGARRFLCGVVEGFYGRPWVMEQRKELFRRLQKWELNTYLYAPKDDYKHRMFWREMYSVEEAEQLMTLISAAREYEIEFIYAISPGLDITFSNPKEVSTLKRKLDQVSQFGCRSFALLFDDIDHNMCAADKEVFSSFAHAQVSITNEIYQYLGEPETFLFCPTEYCGTFCYPNVSQSPYLRTVGEKLLPGIEVLWTGPKVVSKEIPVESIEEVSKIIKRAPVIWDNIHANDYDQKRLFLGPYKGRSTELIPRLKGVLTNPNCEFEANYVAIHTLATWYKSNMNGVRKDVVMTDSEDSTVSIQIKLENEGSDEDIETDVLYSPQMALKLALTEWLQEFGVPHQYSSRQVAHSGAKASVVDGTPLVAAPSLNATTVVTTVYQEPIMSQGAALSGEPTTLTKEEEKKQPDEEPMDMVVEKQEETDHKNDNQILSEIVEAKMAEELKPMDTDKESIAESKSPEMSMQEDCISDIAPMQTDEQTNKEQFVPGPNEKPLYTAEPVTLEDLQLLADLFYLPYEHGPKGAQMLREFQWLRANSSVVSVNCKGKDSEKIEEWRSRAAKFEEMCGLVMGMFTRLSNCANRTILYDMYSYVWDIKSIMSMVKSFVQWLGCRSHSSAQFLIGDQEPWAFRGGLAGEFQRLLPIDGANDLFFQPPPLTPTSKVYTIRPYFPKDEASVYKICREMYDDGVGLPFQSQPDLIGDKLVGGLLSLSLDYCFVLEDEDGICGYALGTVDVTPFIKKCKISWIPFMQEKYTKPNGDKELSEAEKIMLSFHEEQEVLPETFLANFPSLIKMDIHKKVTDPSVAKSMMACLLSSLKANGSRGAFCEVRPDDKRILEFYSKLGCFEIAKMEGFPKDVVILGRSL
In the case of B1, the binding [1] is reported as “binds”.

B2: full-length human OGT (O-GlcNAc transferase), C-terminal His6 (enzyme, UniProt O15294 1-1046, looked up)
chain: MASSVGNVADSTEPTKRMLSFQGLAELAHREYQAGDFEAAERHCMQLWRQEPDNTGVLLLLSSIHFQCRRLDRSAHFSTLAIKQNPLLAEAYSNLGNVYKERGQLQEAIEHYRHALRLKPDFIDGYINLAAALVAAGDMEGAVQAYVSALQYNPDLYCVRSDLGNLLKALGRLEEAKACYLKAIETQPNFAVAWSNLGCVFNAQGEIWLAIHHFEKAVTLDPNFLDAYINLGNVLKEARIFDRAVAAYLRALSLSPNHAVVHGNLACVYYEQGLIDLAIDTYRRAIELQPHFPDAYCNLANALKEKGSVAEAEDCYNTALRLCPTHADSLNNLANIKREQGNIEEAVRLYRKALEVFPEFAAAHSNLASVLQQQGKLQEALMHYKEAIRISPTFADAYSNMGNTLKEMQDVQGALQCYTRAIQINPAFADAHSNLASIHKDSGNIPEAIASYRTALKLKPDFPDAYCNLAHCLQIVCDWTDYDERMKKLVSIVADQLEKNRLPSVHPHHSMLYPLSHGFRKAIAERHGNLCLDKINVLHKPPYEHPKDLKLSDGRLRVGYVSSDFGNHPTSHLMQSIPGMHNPDKFEVFCYALSPDDGTNFRVKVMAEANHFIDLSQIPCNGKAADRIHQDGIHILVNMNGYTKGARNELFALRPAPIQAMWLGYPGTSGALFMDYIITDQETSPAEVAEQYSEKLAYMPHTFFIGDHANMFPHLKKKAVIDFKSNGHIYDNRIVLNGIDLKAFLDSLPDVKIVKMKCPDGGDNADSSNTALNMPVIPMNTIAEAVIEMINRGQIQITINGFSISNGLATTQINNKAATGEEVPRTIIVTTRSQYGLPEDAIVYCNFNQLYKIDPSTLQMWANILKRVPNSVLWLLRFPAVGEPNIQQYAQNMGLPQNRIIFSPVAPKEEHVRRGQLADVCLDTPLCNGHTTGMDVLWAGTPMVTMPGETLASRVAASQLTCLGCLELIAKNRQEYEDIAVKLGTDLEYLKKVRGKVWKQRISSPLFNTKQYTMELERLYLQMWEHYAAGNKPDHMIKPVEVTESA
notes: human O-GlcNAc transferase (OGT), full length, UniProt O15294; Scissor-shaped homodimer by cryo-EM; also called OGT WT; His6-tagged OGT; source: E. coli BL21 (DE3), purified (Ni-NTA, Resource Q, Superose 6); for the OGT-OGA complex co-expressed with OGA in BL21 (DE3); not shown: His6, C-terminal, kept
For B2, the binding [2] was “binds”.

B3: full-length human OGA (O-GlcNAcase) (enzyme, UniProt O60502 1-916)
chain: MVQKESQATLEERESELSSNPAASAGASLEPPAAPAPGEDNPAGAGGAAVAGAAGGARRFLCGVVEGFYGRPWVMEQRKELFRRLQKWELNTYLYAPKDDYKHRMFWREMYSVEEAEQLMTLISAAREYEIEFIYAISPGLDITFSNPKEVSTLKRKLDQVSQFGCRSFALLFDDIDHNMCAADKEVFSSFAHAQVSITNEIYQYLGEPETFLFCPTEYCGTFCYPNVSQSPYLRTVGEKLLPGIEVLWTGPKVVSKEIPVESIEEVSKIIKRAPVIWDNIHANDYDQKRLFLGPYKGRSTELIPRLKGVLTNPNCEFEANYVAIHTLATWYKSNMNGVRKDVVMTDSEDSTVSIQIKLENEGSDEDIETDVLYSPQMALKLALTEWLQEFGVPHQYSSRQVAHSGAKASVVDGTPLVAAPSLNATTVVTTVYQEPIMSQGAALSGEPTTLTKEEEKKQPDEEPMDMVVEKQEETDHKNDNQILSEIVEAKMAEELKPMDTDKESIAESKSPEMSMQEDCISDIAPMQTDEQTNKEQFVPGPNEKPLYTAEPVTLEDLQLLADLFYLPYEHGPKGAQMLREFQWLRANSSVVSVNCKGKDSEKIEEWRSRAAKFEEMCGLVMGMFTRLSNCANRTILYDMYSYVWDIKSIMSMVKSFVQWLGCRSHSSAQFLIGDQEPWAFRGGLAGEFQRLLPIDGANDLFFQPPPLTPTSKVYTIRPYFPKDEASVYKICREMYDDGVGLPFQSQPDLIGDKLVGGLLSLSLDYCFVLEDEDGICGYALGTVDVTPFIKKCKISWIPFMQEKYTKPNGDKELSEAEKIMLSFHEEQEVLPETFLANFPSLIKMDIHKKVTDPSVAKSMMACLLSSLKANGSRGAFCEVRPDDKRILEFYSKLGCFEIAKMEGFPKDVVILGRSL
In the case of B3, the binding [3] is reported as “binds” and the binding [4] is reported as “binds”.
